PubChem BioAssay AID686938, Drosophila RNAi Screening Center | 2013
The deposit covers about 23,000 reagents; below is a random part of those that have a named target and a result. In the full data, 75 (0.33%) are marked active. 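Raw plate signals without normalisation; calls rest on plate z-scores that were not deposited; ratio present for only 364 wells.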 A number with no mark means an inactive call. Not stated in the record: the dose of the treatment.

Screen: 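Knock-downs reducing store-operated calcium influx in Drosophila cells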 (primary screen)
System: Drosophila S2R+ cells
Knock-down reagent: long dsRNA against Drosophila genes, about 0.25 µg dsRNA per well, roughly 10,000 cells
Time to read-out: 5 days of knock-down before the calcium assay
Challenge: thapsigargin (SERCA pump blocker) to empty calcium stores; entry signal taken 4 min after adding it
Measurement: 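Per-well fluo-4 fluorescence in two replicates, unnormalised, measured in resting cells and 4 min after store depletion by the SERCA blocker thapsigargin; ratio of the two present in few wells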
Direction: calcium entry signal: higher = stronger calcium signal after store depletion; entry to resting ratio: higher = more calcium entry relative to resting level; resting calcium signal: higher = higher resting calcium signal
Hit rule: 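Hit if the duplicate-averaged plate z-score for entry over resting signal is under −3; wells with weak total dye signal (Fmax z < −2) or more than 5 off-targets removed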
Calls: active = strongly reduced calcium entry; inactive = no strong reduction

Knock-down of I-2 (Inhibitor-2) [DRSC11194] resulted in: calcium entry signal, replicate 1 (fluorescence units) = 1.96e7; calcium entry signal, replicate 2 (fluorescence units) = 2.92e7; resting calcium signal, replicate 1 (fluorescence units) = 1.15e7; resting calcium signal, replicate 2 (fluorescence units) = 1.36e7. After knock-down of I-2 (Inhibitor-2) [DRSC23300], the screen gave calcium entry signal, replicate 1 (fluorescence units) = 3.64e7; calcium entry signal, replicate 2 (fluorescence units) = 3.18e7; resting calcium signal, replicate 1 (fluorescence units) = 1.60e7; resting calcium signal, replicate 2 (fluorescence units) = 1.43e7. Against CG34175 [DRSC00424], the entry reads calcium entry signal, replicate 1 (fluorescence units) = 2.85e7; calcium entry signal, replicate 2 (fluorescence units) = 2.80e7; resting calcium signal, replicate 1 (fluorescence units) = 1.38e7; resting calcium signal, replicate 2 (fluorescence units) = 1.28e7. After knock-down of CG14050 [DRSC18594], the record shows calcium entry signal, replicate 1 (fluorescence units) = 4.68e7; calcium entry signal, replicate 2 (fluorescence units) = 4.83e7; entry to resting ratio 2.2; resting calcium signal, replicate 1 (fluorescence units) = 2.12e7; resting calcium signal, replicate 2 (fluorescence units) = 2.18e7. After knock-down of MESK2 (Misexpression suppressor of KSR 2) [DRSC04258], the record shows calcium entry signal, replicate 1 (fluorescence units) = 3.91e7; calcium entry signal, replicate 2 (fluorescence units) = 5.18e7; resting calcium signal, replicate 1 (fluorescence units) = 1.85e7; resting calcium signal, replicate 2 (fluorescence units) = 2.12e7. CG11722 [DRSC14358] scored calcium entry signal, replicate 1 (fluorescence units) = 2.17e7; calcium entry signal, replicate 2 (fluorescence units) = 2.08e7; resting calcium signal, replicate 1 (fluorescence units) = 1.22e7; resting calcium signal, replicate 2 (fluorescence units) = 1.18e7.

Against GstT1 (Glutathione S transferase T1) [DRSC06243] the deposit lists calcium entry signal, replicate 1 (fluorescence units) = 4.27e7; calcium entry signal, replicate 2 (fluorescence units) = 4.51e7; resting calcium signal, replicate 1 (fluorescence units) = 1.98e7; resting calcium signal, replicate 2 (fluorescence units) = 1.98e7. Depletion of Lmpt (Limpet) [DRSC09450] resulted in: calcium entry signal, replicate 1 (fluorescence units) = 4.50e7; calcium entry signal, replicate 2 (fluorescence units) = 3.90e7; resting calcium signal, replicate 1 (fluorescence units) = 1.98e7; resting calcium signal, replicate 2 (fluorescence units) = 1.91e7. Knock-down of Lmpt (Limpet) [DRSC09864] came out at: calcium entry signal, replicate 1 (fluorescence units) = 4.48e7; calcium entry signal, replicate 2 (fluorescence units) = 6.34e7; resting calcium signal, replicate 1 (fluorescence units) = 2.08e7; resting calcium signal, replicate 2 (fluorescence units) = 2.42e7. Lmpt (Limpet) [DRSC09865] gave calcium entry signal, replicate 1 (fluorescence units) = 2.28e7; calcium entry signal, replicate 2 (fluorescence units) = 3.26e7; resting calcium signal, replicate 1 (fluorescence units) = 1.12e7; resting calcium signal, replicate 2 (fluorescence units) = 2.22e7. Against Lmpt (Limpet) [DRSC09866] the deposit lists calcium entry signal, replicate 1 (fluorescence units) = 4.56e7; calcium entry signal, replicate 2 (fluorescence units) = 6.93e7; resting calcium signal, replicate 1 (fluorescence units) = 2.24e7; resting calcium signal, replicate 2 (fluorescence units) = 2.67e7. Depletion of Lmpt (Limpet) [DRSC11107] gave: calcium entry signal, replicate 1 (fluorescence units) = 3.84e7; calcium entry signal, replicate 2 (fluorescence units) = 6.59e7; resting calcium signal, replicate 1 (fluorescence units) = 1.83e7; resting calcium signal, replicate 2 (fluorescence units) = 2.56e7.

Lmpt (Limpet) [DRSC21738] showed calcium entry signal, replicate 1 (fluorescence units) = 3.27e7; calcium entry signal, replicate 2 (fluorescence units) = 3.46e7; resting calcium signal, replicate 1 (fluorescence units) = 1.71e7; resting calcium signal, replicate 2 (fluorescence units) = 1.63e7. Knock-down of Lmpt (Limpet) [DRSC22921] came out at: calcium entry signal, replicate 1 (fluorescence units) = 3.00e7; calcium entry signal, replicate 2 (fluorescence units) = 4.28e7; resting calcium signal, replicate 1 (fluorescence units) = 1.50e7; resting calcium signal, replicate 2 (fluorescence units) = 1.73e7.
